Assay results taken from article PMC12288872.
No constants are given. Whether binding was seen depends on the method and setting. In cells and extracts the contact can be indirect. A result given as binding can be weak or reduced; the word gives no strength.

Protein sequences, listed by entry. Tags and fused reporters are not part of them. Lines headed by an entry give the natural chain unless they say otherwise; changes in a name come on top.
UniProt P37231: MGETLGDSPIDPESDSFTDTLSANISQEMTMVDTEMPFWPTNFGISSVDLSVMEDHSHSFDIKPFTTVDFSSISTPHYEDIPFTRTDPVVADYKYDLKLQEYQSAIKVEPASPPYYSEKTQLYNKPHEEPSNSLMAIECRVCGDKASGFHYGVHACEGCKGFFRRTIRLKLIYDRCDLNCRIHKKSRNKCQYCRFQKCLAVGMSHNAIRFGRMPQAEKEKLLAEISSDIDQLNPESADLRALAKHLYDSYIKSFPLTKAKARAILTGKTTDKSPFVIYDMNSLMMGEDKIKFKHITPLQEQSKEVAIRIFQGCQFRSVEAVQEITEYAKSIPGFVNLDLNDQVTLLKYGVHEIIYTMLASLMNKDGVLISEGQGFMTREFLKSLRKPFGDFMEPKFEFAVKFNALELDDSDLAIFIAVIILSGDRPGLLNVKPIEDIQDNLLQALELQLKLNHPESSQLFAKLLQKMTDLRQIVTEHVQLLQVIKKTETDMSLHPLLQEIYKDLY
UniProt P56178: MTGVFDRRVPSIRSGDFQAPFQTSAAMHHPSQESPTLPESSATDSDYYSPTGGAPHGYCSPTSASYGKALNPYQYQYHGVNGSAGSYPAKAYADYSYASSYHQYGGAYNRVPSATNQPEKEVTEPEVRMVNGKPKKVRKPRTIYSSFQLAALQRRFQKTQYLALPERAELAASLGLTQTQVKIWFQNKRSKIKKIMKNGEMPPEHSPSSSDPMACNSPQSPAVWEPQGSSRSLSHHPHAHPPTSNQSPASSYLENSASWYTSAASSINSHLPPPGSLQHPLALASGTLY
UniProt Q09472: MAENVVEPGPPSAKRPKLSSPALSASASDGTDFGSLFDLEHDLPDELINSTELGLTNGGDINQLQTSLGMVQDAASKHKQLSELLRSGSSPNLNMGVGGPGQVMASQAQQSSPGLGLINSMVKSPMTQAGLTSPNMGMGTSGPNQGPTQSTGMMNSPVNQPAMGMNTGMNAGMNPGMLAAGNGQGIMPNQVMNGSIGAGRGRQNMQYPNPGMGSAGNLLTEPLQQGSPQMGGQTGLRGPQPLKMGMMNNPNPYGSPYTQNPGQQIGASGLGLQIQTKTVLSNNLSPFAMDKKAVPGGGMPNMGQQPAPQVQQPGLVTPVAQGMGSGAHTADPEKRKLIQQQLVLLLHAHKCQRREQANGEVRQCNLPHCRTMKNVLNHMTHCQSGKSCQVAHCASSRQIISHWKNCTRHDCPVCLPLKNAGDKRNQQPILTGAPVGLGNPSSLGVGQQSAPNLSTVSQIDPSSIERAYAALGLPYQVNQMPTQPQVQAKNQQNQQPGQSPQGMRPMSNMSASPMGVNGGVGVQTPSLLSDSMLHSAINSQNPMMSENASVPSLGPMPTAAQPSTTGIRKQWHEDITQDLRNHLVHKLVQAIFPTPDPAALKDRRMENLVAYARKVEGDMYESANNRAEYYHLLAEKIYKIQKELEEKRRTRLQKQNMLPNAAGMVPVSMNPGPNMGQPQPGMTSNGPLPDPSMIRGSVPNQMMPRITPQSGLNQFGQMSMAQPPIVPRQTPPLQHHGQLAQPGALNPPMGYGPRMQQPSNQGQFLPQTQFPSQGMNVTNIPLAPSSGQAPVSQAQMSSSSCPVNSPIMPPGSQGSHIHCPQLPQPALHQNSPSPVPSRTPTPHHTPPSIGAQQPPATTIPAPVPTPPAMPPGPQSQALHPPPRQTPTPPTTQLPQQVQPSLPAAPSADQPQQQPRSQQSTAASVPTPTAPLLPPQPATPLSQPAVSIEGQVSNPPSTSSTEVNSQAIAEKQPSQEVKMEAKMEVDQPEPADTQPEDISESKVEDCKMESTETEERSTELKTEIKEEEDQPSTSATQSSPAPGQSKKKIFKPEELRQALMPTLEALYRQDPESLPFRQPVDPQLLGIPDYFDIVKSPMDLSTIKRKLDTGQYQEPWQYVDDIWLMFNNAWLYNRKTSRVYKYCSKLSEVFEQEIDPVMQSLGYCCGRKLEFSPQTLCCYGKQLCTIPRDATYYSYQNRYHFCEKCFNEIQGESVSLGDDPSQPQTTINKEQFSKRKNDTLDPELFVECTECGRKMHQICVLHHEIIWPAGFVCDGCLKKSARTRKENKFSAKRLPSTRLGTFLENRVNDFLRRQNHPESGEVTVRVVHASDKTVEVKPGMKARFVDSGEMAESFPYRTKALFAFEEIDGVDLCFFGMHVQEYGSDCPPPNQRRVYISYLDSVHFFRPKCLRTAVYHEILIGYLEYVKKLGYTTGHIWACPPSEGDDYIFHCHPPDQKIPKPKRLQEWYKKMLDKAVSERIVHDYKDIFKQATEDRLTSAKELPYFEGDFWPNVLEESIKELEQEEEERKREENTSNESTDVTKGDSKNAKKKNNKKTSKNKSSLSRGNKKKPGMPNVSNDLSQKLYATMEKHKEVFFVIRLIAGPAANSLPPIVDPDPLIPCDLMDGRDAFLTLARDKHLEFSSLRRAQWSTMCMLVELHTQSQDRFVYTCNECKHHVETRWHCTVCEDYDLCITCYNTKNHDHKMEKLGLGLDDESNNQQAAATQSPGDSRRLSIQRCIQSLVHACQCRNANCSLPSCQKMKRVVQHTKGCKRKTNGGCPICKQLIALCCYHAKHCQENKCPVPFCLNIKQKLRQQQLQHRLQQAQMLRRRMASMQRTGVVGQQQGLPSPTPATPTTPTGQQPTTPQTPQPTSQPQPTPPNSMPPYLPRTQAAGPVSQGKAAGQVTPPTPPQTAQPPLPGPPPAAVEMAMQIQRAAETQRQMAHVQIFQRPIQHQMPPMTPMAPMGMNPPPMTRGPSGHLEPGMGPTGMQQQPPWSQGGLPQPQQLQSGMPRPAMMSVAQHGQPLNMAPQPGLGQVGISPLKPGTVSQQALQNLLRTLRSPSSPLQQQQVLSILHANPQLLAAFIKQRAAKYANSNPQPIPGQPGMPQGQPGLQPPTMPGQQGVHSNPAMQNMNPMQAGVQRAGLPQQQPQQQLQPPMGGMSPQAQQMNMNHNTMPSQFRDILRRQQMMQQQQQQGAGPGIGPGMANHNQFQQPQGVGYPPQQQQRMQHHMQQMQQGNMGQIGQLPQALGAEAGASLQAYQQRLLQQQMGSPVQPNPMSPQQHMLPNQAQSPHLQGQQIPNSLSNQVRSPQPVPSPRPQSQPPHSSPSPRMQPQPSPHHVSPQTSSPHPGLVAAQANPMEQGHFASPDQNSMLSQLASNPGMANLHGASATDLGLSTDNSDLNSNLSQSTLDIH
UniProt Q96RN5: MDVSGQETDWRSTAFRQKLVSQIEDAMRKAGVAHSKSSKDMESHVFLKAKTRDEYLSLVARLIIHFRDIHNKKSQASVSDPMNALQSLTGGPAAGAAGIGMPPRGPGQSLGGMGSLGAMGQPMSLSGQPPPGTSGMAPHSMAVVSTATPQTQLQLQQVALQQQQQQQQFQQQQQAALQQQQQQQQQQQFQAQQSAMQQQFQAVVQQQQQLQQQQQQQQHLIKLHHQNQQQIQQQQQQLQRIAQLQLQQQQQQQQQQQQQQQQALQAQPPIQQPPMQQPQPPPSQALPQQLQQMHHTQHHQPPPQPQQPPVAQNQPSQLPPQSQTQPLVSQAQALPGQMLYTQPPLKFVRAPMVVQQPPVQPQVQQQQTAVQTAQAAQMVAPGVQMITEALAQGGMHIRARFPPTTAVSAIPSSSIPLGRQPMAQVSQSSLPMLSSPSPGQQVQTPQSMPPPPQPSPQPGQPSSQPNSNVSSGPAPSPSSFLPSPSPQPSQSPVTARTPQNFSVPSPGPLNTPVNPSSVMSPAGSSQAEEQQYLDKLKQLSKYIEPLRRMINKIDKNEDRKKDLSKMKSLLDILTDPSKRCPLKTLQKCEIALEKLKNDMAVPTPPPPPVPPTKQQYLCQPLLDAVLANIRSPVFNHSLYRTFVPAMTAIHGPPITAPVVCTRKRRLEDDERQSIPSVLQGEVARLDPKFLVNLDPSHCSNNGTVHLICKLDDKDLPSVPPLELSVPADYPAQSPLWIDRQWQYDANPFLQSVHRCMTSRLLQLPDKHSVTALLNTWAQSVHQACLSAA
UniProt P35548: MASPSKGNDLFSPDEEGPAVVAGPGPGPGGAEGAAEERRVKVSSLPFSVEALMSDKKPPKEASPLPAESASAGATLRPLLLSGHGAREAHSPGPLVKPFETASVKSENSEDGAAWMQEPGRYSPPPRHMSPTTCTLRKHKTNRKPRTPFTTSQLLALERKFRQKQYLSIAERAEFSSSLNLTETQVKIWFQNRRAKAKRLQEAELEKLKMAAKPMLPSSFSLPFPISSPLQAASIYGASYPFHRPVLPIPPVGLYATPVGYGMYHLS

How the values were obtained:
[1] = target: Peroxisome proliferator-activated receptor gamma (human (endogenous in CT27 TSCs and EVTs derived from them)) (UniProt P37231); assay: co-IP; EVTs (day not stated); endogenous PPARG precipitated with PPARG antibody on Dynabeads Protein A, overnight at 4°C, Pierce IP Lysis Buffer; beads without antibody as control; western blot
[2] = target: Peroxisome proliferator-activated receptor gamma (human (endogenous in CT27 TSCs and EVTs derived from them)) (UniProt P37231); assay: co-IP; EVT day 3 cells; endogenous PPARG precipitated with PPARG antibody on Dynabeads Protein A, overnight at 4°C, Pierce IP Lysis Buffer; beads without antibody as control; western blot
[3] = target: Peroxisome proliferator-activated receptor gamma (human (endogenous in CT27 TSCs and EVTs derived from them)) (UniProt P37231); assay: co-IP; TSCs at ~80% confluency; endogenous PPARG precipitated with PPARG antibody on Dynabeads Protein A, overnight at 4°C, Pierce IP Lysis Buffer; beads without antibody as control; western blot

| binding [2] | Substance | also measured |
| --- | --- | --- |
|  | DLX5 (from UniProt P56178 1-289) | binding [1]: binds |
| binds | EP300 (from UniProt Q09472 1-2414) |  |
| binds | MED15 (from UniProt Q96RN5 1-788) |  |
|  | MSX2 (from UniProt P35548 1-267) | binding [3]: binds |
